Measurements from PMC7819943, “Rice protein-binding microarrays: a tool to detect cis-acting elements near promoter regions in rice”.
Some of the results follow.

The chains behind the UniProt entries cited, without tags or fusion partners.
UniProt Q0JBA9, entry or part of it: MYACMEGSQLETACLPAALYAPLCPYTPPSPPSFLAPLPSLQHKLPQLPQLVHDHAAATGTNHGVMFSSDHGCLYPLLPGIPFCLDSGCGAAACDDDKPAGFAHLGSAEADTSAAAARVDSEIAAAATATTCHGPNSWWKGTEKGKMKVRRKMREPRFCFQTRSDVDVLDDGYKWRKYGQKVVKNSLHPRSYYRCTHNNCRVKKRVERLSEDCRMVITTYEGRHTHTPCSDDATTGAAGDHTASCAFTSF

target: OsWRKY34 (Oryza sativa, UniProt Q0JBA9 1-250); test: protein-binding microarray (RPBM); PBS, 2% BSA, 51.3 ng/ul salmon testes DNA, 50 uM zinc acetate, 200 nM TF, 25 C, 1 h; high values mean tight binding; settings: protein: recombinant; tags: N-terminal polyhistidine and DsRed monomer fusion (pET32a); label: CyDye5-dUTP incorporated in the synthesized complementary strand; 3' TTTTT single-stranded linker to array surface; dsDNA, one strand shown
Method in brief: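 The binding signal is fluorescence intensity per feature, in arbitrary units, read on an Axon 4000B scanner. Polyhistidine- and DsRed-tagged transcription factors (N-terminal fusions) from E. coli BL21-CodonPlus were purified on Ni–NTA and applied at 200 nM for 1 h at 25 °C to a double-stranded, BSA-blocked custom Agilent array in buffer with 50 µM zinc acetate.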

Sequence | binding signal
AATGTATGACGCAGTTGACTTTGTGACAAACGTTTGACCTCGGAGTCACCTAGTGCAG | 12300 fluorescence intensity (a.u.)
GAGGGGTGCTTGGAGTGCGGGGTGTGCTATCAATGATGGTCGGAGTCACCTAGTGCAG | 10700 fluorescence intensity (a.u.)
TTGACGCCGTTGACTTTTTAGTACATGTTTGACCATTCGTCGGAGTCACCTAGTGCAG | 49900 fluorescence intensity (a.u.)
TTGACCTTTTCTCACATGTTTAACCATTCGTCTTATTTAACGGAGTCACCTAGTGCAG | 13500 fluorescence intensity (a.u.)
TTTGCATAGTTAGGGGTGAAGACTGTCCGGTTTTGTGGTTCGGAGTCACCTAGTGCAG | 8200 fluorescence intensity (a.u.)
GTCCAAACTAACCCCACCAAAGCTAAAACGTCATTTATTTCGGAGTCACCTAGTGCAG | 8970 fluorescence intensity (a.u.)
TACGGTCTCGTCGGTATCATCGAATTCTGTTATTCCCTTTCGGAGTCACCTAGTGCAG | 8410 fluorescence intensity (a.u.)
TGGCTCATTTACGTTTCGTTTAGGTTTCTCCATTCATCAACGGAGTCACCTAGTGCAG | 8760 fluorescence intensity (a.u.)
GGCCCCTACTGGCGCCTCGTCCGCCGCAACCTCGCCTCCGCGGAGTCACCTAGTGCAG | 8340 fluorescence intensity (a.u.)
ACCTTGACTCCTCCAATTCTCCTTTATTTTTTCTGTCTATCGGAGTCACCTAGTGCAG | 14900 fluorescence intensity (a.u.)
CCCTACCGTTACATTTTTCCATCATTTTACTGTTACGTTTCGGAGTCACCTAGTGCAG | 11000 fluorescence intensity (a.u.)
CGTACTGGGCTGGGCTGGGCTGGGATTCAACCGAACGGGGCGGAGTCACCTAGTGCAG | 20400 fluorescence intensity (a.u.)
TCCATTTTGTCGGTTCTTCTCTTGATCTGTCGGTGTTCTTCGGAGTCACCTAGTGCAG | 11100 fluorescence intensity (a.u.)
TTTTGTCTGCTAGGGGTAGTAAGGTGGGGCCACTGAAAAACGGAGTCACCTAGTGCAG | 9640 fluorescence intensity (a.u.)
ACTGTATATTCTCAAGGGCGGGCTCCGTCAGGGTGATGTCCGGAGTCACCTAGTGCAG | 11800 fluorescence intensity (a.u.)
CTCAAGAGGATGTCCCCACGTGTATCTTTTCCTTTCAAATCGGAGTCACCTAGTGCAG | 8890 fluorescence intensity (a.u.)
CTTCGCTTGCTCTCTTCTCTTCTCCGAGGTGCCAAACATACGGAGTCACCTAGTGCAG | 11200 fluorescence intensity (a.u.)
TAGGGGTTAGTGTGCGAGCATGTGCTGTGTAATTTTTTAACGGAGTCACCTAGTGCAG | 10600 fluorescence intensity (a.u.)
TGACCGAGCCATTCGACTCACTGAGCTTGTTTCTTGTCATCGGAGTCACCTAGTGCAG | 8400 fluorescence intensity (a.u.)
GATTACTTAGTGTCAAGCGCTCTTCGTCGATGTCGACGCTCGGAGTCACCTAGTGCAG | 8410 fluorescence intensity (a.u.)
ACAAAAGTGGACATTGGGTGGGTCAAAACTGGGATTAAATCGGAGTCACCTAGTGCAG | 11200 fluorescence intensity (a.u.)
TTTCCGCCCACATCGCCTTCTACCTCTCGCACTCCGCTAGCGGAGTCACCTAGTGCAG | 13200 fluorescence intensity (a.u.)
CTCGCTGTCTTTCTCTATCTAGCGGGTCGCGGTGAGTCGTCGGAGTCACCTAGTGCAG | 9420 fluorescence intensity (a.u.)

Random excerpt: two entries already listed.
Sequence | binding signal
TGACCGAGCCATTCGACTCACTGAGCTTGTTTCTTGTCATCGGAGTCACCTAGTGCAG | 8400 fluorescence intensity (a.u.)
AATGTATGACGCAGTTGACTTTGTGACAAACGTTTGACCTCGGAGTCACCTAGTGCAG | 12300 fluorescence intensity (a.u.)
